Measured values published in ChEMBL document CHEMBL2150981, “Discovery and optimization of benzotriazine di-N-oxides targeting replicating and nonreplicating Mycobacterium tuberculosis” (J Med Chem, 2012).
Converted amounts (≈) assume the structure as drawn.

Experiments:
[1] = tested on: Mycobacterium tuberculosis; assay: Antitubercular activity against Mycobacterium tuberculosis H37Rv isolate SRI after 5 days by resazurin-based microplate assay; assay type: functional; conditions: 120 h
How it was run: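 Mid-log cultures grown in 7H9 with glycerol, Tween-80 and ADC. Compounds in DMSO were tested two-fold from […] against ~10^5 CFU/mL, 37°C for 5 d. Resazurin was then added for a further 2 d, and fluorescence read at ex 530/em 590 with visual confirmation. MIC was the lowest concentration inhibiting 90% of growth. Final DMSO 0.625%; two-fold variation taken as assay error.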

[2] = tested on: Mycobacterium tuberculosis; assay: Antitubercular activity against Mycobacterium tuberculosis H37Rv isolate ITR after 7 days by luminescence spectrometry; assay type: functional; conditions: 168 h

SMILES: O=C1OCCN1/N=C/c1ccc([N+](=O)[O-])o1 [FURAZOLIDONE]
- MIC90 [1]: 31 mg/L (≈ 138 µM)
- MIC90 [2]: 30 mg/L (≈ 133 µM)
